Reference: PMC9561108
Results are given in words; binding and its absence hold for the method and conditions named. Binding seen in cells or lysates may run through a third protein. Some results given as binding are weak or reduced against the parent protein; the word gives no strength.

The chains behind the UniProt entries cited, without tags or fusion partners. Residues count along the entry.
UniProt Q08345, residues 19-913: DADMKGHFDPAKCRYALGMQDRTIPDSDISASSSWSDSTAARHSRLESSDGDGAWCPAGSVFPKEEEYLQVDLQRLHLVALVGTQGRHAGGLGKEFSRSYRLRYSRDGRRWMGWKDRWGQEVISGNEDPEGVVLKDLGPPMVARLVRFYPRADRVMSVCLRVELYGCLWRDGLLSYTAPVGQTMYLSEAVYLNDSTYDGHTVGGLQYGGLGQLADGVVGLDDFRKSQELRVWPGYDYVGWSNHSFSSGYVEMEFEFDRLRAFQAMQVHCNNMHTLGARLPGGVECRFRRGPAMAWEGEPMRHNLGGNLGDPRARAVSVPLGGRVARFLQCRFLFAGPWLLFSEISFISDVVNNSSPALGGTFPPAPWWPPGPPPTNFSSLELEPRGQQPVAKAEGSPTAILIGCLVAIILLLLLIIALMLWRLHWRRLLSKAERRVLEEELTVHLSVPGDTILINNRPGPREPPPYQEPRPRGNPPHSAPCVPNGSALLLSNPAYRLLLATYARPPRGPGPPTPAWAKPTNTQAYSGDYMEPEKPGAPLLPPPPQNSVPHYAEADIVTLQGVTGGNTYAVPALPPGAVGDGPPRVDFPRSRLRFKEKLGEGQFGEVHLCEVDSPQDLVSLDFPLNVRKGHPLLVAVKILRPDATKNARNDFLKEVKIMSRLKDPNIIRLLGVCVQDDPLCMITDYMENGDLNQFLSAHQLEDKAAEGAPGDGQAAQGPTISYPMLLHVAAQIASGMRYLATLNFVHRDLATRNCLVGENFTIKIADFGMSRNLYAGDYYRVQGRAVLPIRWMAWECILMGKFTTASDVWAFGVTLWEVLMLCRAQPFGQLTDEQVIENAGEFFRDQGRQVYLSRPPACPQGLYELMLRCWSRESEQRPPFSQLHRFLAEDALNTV

Legend:
[1] = biological target: T1, transmembrane 4 L six family member 1 (TM4SF1) (UniProt P30408); assay: co-IP; coimmunoprecipitation assays to identify the interaction domain of TM4SF1 (Supplementary Fig. 6a, b); cells and constructs not shown
T1 sequence: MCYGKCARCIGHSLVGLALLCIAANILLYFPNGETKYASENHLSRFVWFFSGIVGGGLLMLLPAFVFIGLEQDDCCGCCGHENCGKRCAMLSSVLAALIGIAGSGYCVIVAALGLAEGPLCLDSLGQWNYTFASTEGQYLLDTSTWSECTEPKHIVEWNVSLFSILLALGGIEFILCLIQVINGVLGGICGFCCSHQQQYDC

[2] = biological target: T1, transmembrane 4 L six family member 1 (TM4SF1); assay: co-IP; coimmunoprecipitation of TM4SF1 and DDR1 with monoclonal antibodies against ECL1 of TM4SF1 (Fig. 1t; lysates in Supplementary Fig. S6d); three independent experiments

- binding [1]: binds
- binding [2]: binds
Substance: discoidin domain receptor tyrosine kinase 1 (DDR1) (from UniProt Q08345 19-913)
